Measurements published in patent US10675260B2, “Methods and pharmaceutical compositions for preventing or treating immunoinflammatory dermal disorders” (TWi Biotechnology, Inc., priority 2017, dated 2020).
At least one compound was matched to its structure with a doubt left.

Assays:
Assay type in all cases: cell-based, human
BP180 = assay: Immunofluorescence study of BP180 internalization in keratinocytes treated with BP-IgG; settings: 0.1 to 10 μM, confocal microscopy
Protocol: For this BP180 internalization study, IgG purification from BP patients and cell culture treated with different IgG and drugs (diacerein or berberine) were performed according to the procedures described in Example 1. Keratinocytes grown on glass coverslips were fixed in 4% paraformaldehyde, washed thoroughly in PBS, and permeabilized in 0.1% (v/v) Triton X-100 in PBS for 10 minutes. Primary antibodies were overlaid onto the cells, and the preparations were incubated at room temperature for 1 hour. The cells on coverslips were washed with PBS, and fluorescence-conjugated secondary antibodies were applied for 1 hour at room temperature. After being washed with PBS, coverslips were mounted onto slides. The fluorescence color for cell nucleus was dark blue and BP180 was bright green. All preparations were examined by the confocal microscopy.

IL-6 mRNA = assay: Quantitation of IL-6 mRNA expression by quantitative real-time PCR; settings: BP IgG-treated HaCaT cells; 0.1, 1, 10 μM; 48 h; RT-qPCR normalized to GAPDH
Protocol: (§1) IL-6 and IL-8 messenger RNA (mRNA) levels were quantitated using quantitative real-time polymerase chain reaction (qPCR) as reported previously. BP IgG-treated HaCaT cells were cultured with or without diacerein or berberine or clobetasol propionate for 48 h. Total RNA was isolated from cultured HaCaT cells using TRIzol reagent (LifeTechnologies) according to the manufacturer's instruction. Complementary DNA (cDNA) was reverse-transcribed from isolated RNA by incubating 1 μg of RNA with the RevertAid First Strand cDNA Synthesis Kit (Thermo Scientific) following the manufacturer's instructions. Quantitative RT-PCR was performed in a Mastercycler (Eppendorf) using SYBR® Select Master Mix (Life Technologies). PCR mixtures contained 0.5 μM of each forward and reverse primers. Each reaction mixture was subjected to 2 min at 50° C. and 2 min at 95° C. followed by 40 cycles with 15 seconds at 95° C. and 1 min at 60° C. Data were normalized to the housekeeping gene glyceraldehyde-3-phosphate dehydrogenase (GAPDH). The primers used in RT-PCR were as follows: IL-8 messenger RNA (mRNA), forward, 5′-ACCGGAAGGAACCATCTCAC-3′, and reverse, 5′-AAACTGCACCTTCACACAGAG-3′ and IL-6 messenger RNA (mRNA), forward, 5′-GGTACATCCTCGACGGCATCT-3′, and reverse, 5′-GTGCCTCTTTGCTGCTTTCAC-3′ and GAPDH, forward, 5′-ACAACTTTGGTATCGTGGAAGG-3′, and reverse, 5′-GCC ATC ACG CCA CAG TTT-3′.

IL-8 mRNA = assay: Quantitation of IL-8 mRNA expression by quantitative real-time PCR; settings: BP IgG-treated HaCaT cells; 0.1, 1, 10 μM; 48 h; RT-qPCR normalized to GAPDH
Protocol: as §1

IL-8 = assay: Pro-inflammatory cytokine measurement: IL-8 in culture supernatant by ELISA; settings: HaCaT cells treated with BP-IgG or Specific-IgG 2 mg/mL; 0.1, 1, 10 μM; 48 h
Protocol: (§2) HaCaT cells (CLS Cell Lines Service, Germany) were cultured in Dulbecco's modified eagle medium (DMEM) medium supplemented with 4.5 g/L glucose, 2 mM L-glutamine and 10% fetal bovine serum. Cells were seeded on 24- or 12-well plates and grown to 80% confluence for the following assays. Cytokine measurement was conducted based on previous studies. Briefly, cells were incubated with medium alone or with 2 mg/mL purified BP-IgG or Specific-IgG and cultured in absence or presence of diacerein or berberine or clobetasol propionate (0.1, 1, and 10 μM) and culture supernatants were collected after 48 h of incubation, and stored for analysis at −20° C. IL-6 and IL-8 levels were analyzed in cell culture supernatants by ELISA (BD Biosciences) according to the manufacturer's instructions.

IL-6 = assay: Pro-inflammatory cytokine measurement: IL-6 in culture supernatant by ELISA; settings: HaCaT cells treated with BP-IgG or specific anti-BP180 IgG 2 mg/mL; 0.1, 1, 10 μM; 48 h
Protocol: as §2

`COc1ccc2cc3[n+](cc2c1OC)CCc1cc2c(cc1-3)OCO2` [berberine, 5,6-dihydro-9,10-dimethoxybenzo(g)-1,3-benzodioxolo (5,6-a) quinolizinium] was tested, and the “membranous localization of BP180 (BP180 internalization)” value (BP180) was “membranous localization of BP180 was restored”, the “IL-6 mRNA expression levels” value (IL-6 mRNA) was “dose-dependent inhibitory effects on both IL-6 and IL-8 mRNA expression” and the “IL-8 mRNA expression levels” value (IL-8 mRNA) was “dose-dependent inhibitory effects on both IL-6 and IL-8 mRNA expression”. For the same compound, the “secretion of IL-8” value (IL-8) was “dose-dependently reduced the secretion of IL-8” and the “secretion of IL-6” value (IL-6) was “did not reduce the secretion of IL-6”.
